Test results published in the supplement of paper PMC12823440, “Inhibitors supercharge kinase turnover through native proteolytic circuits” (Nature, 2025).
The list shows a part of the results. Hit calls seldom repeat between salt and free forms of one compound.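 Kinases, fused to nanoluciferase, were expressed in K562 cells; luminescence was measured every 4 h from 2 to 18 h as percent of control (DMSO = 100%, positive control = 0%). A time point is decreased if signal falls significantly (2 sigma). Hits were called by the authors by a rule that is not shown; the count of time points alone does not decide it.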

Chains of the proteins cited; added tags and fusions are not shown. Lines headed by an entry give the natural chain unless they say otherwise; changes in a name come on top.
UniProt Q9BRS2: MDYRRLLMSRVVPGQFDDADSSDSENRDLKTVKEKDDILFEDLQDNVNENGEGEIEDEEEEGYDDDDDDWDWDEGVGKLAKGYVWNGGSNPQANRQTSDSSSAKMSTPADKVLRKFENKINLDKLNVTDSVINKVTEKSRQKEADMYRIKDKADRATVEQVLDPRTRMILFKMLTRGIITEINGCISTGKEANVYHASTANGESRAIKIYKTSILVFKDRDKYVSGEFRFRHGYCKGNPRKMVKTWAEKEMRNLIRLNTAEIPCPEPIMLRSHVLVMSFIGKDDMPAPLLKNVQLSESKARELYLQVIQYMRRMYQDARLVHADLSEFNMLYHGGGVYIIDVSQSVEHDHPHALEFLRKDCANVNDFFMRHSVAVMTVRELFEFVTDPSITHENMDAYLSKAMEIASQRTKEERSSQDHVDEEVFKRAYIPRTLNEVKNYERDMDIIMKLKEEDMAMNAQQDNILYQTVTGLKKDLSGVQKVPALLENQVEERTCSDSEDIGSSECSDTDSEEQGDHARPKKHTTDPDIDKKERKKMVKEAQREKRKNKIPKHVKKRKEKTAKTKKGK
UniProt Q01974, whole entry: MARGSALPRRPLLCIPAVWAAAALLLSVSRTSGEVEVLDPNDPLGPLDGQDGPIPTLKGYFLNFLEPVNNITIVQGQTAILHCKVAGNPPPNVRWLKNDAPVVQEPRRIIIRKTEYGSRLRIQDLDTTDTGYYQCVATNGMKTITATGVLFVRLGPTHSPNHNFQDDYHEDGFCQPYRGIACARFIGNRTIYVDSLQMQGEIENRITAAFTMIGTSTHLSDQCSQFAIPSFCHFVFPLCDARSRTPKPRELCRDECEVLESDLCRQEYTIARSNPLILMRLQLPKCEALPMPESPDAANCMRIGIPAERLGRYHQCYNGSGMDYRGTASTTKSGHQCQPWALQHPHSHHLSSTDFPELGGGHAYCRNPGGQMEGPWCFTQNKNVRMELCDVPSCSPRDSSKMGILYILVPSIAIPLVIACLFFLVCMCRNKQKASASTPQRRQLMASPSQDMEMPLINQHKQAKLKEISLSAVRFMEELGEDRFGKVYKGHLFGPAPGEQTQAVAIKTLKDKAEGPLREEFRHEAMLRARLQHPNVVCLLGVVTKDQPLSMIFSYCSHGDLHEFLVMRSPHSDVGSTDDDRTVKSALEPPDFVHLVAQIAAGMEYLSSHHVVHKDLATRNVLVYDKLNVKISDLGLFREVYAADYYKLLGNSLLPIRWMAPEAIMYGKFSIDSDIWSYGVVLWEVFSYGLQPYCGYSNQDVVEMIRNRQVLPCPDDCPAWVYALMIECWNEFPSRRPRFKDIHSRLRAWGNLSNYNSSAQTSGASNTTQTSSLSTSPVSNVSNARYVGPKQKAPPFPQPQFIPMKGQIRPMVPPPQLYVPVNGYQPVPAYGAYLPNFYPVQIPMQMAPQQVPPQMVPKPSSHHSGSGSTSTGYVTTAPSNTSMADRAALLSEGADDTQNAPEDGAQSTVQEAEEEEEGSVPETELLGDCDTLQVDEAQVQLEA
UniProt Q9NYA1, whole entry: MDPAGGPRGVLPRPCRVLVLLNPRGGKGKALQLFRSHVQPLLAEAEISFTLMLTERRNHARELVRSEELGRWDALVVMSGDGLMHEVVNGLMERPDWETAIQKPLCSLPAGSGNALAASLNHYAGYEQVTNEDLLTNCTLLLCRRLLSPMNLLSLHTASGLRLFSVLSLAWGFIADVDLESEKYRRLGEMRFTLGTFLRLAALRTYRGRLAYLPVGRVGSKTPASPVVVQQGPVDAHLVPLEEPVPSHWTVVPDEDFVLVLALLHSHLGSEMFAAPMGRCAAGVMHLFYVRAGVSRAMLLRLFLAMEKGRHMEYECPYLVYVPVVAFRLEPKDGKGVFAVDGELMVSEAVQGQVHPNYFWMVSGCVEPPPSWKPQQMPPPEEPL
UniProt Q15208: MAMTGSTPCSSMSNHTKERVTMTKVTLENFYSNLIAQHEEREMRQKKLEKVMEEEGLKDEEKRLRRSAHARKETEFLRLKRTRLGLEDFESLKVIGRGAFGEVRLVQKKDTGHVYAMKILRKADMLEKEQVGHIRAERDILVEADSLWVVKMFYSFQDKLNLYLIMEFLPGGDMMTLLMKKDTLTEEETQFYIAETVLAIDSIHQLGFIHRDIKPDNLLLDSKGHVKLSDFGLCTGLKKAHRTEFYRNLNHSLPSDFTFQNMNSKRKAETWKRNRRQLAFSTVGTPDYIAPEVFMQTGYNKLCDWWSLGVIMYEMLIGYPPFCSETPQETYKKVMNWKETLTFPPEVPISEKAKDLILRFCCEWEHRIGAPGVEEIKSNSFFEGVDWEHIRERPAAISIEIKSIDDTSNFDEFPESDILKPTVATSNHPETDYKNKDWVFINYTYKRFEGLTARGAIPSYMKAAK
UniProt P42680: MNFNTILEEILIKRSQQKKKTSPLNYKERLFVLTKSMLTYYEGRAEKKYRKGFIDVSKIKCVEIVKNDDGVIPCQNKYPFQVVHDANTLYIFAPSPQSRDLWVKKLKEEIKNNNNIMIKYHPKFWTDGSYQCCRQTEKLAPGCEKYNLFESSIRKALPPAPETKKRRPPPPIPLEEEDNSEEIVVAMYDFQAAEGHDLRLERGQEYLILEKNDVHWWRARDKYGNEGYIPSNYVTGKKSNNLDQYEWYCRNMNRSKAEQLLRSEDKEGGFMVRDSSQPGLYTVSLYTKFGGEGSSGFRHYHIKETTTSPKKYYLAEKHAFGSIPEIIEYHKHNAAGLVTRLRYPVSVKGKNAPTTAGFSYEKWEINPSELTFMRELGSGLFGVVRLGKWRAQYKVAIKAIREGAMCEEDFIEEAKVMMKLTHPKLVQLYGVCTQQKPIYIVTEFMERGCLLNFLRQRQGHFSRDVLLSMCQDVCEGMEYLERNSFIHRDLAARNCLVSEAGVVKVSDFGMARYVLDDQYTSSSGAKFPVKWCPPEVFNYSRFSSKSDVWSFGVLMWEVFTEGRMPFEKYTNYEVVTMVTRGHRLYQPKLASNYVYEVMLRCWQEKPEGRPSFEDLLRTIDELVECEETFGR
UniProt P29597: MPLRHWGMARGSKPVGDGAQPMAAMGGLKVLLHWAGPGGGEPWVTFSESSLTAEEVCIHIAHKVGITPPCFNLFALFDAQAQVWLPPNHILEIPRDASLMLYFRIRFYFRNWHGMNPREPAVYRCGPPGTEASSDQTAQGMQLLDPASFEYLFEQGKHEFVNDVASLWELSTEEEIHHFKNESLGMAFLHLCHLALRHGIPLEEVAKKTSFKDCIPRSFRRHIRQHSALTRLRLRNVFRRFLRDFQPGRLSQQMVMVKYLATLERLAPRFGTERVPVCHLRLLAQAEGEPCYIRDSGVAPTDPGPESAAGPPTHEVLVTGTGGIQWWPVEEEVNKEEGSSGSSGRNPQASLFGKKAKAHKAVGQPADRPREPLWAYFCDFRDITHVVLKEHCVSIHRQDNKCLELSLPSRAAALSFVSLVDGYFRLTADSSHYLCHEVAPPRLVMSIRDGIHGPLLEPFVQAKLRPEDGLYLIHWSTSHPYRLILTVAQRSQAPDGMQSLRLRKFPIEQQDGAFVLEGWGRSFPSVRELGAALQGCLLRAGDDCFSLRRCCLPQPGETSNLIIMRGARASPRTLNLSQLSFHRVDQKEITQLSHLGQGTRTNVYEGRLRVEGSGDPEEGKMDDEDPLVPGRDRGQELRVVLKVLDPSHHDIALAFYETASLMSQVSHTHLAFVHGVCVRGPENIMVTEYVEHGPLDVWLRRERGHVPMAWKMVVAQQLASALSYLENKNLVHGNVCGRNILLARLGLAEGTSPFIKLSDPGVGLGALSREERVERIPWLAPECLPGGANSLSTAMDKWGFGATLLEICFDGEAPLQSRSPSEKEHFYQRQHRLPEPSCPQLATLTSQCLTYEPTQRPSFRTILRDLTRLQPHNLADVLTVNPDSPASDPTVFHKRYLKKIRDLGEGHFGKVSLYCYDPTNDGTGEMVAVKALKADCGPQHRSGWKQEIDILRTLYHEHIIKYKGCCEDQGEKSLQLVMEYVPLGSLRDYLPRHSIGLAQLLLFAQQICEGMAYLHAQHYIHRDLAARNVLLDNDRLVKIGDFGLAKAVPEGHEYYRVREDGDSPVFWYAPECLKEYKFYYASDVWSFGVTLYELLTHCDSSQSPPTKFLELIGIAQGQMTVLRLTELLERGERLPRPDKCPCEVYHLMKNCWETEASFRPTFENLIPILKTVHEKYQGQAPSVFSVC
UniProt Q6PHR2: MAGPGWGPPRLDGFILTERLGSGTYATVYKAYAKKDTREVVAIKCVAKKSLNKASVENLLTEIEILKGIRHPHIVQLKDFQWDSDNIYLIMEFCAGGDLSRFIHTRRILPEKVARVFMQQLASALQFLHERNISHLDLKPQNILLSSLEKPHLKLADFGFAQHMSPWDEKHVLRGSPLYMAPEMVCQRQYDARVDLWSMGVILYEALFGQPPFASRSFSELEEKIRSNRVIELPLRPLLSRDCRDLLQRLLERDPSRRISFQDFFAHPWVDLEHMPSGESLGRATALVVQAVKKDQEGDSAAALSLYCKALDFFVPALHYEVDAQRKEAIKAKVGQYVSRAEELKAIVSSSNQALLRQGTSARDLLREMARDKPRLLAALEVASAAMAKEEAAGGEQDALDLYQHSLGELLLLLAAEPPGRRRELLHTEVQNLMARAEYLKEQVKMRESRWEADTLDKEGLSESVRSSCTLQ
UniProt P07947, whole entry, looked up: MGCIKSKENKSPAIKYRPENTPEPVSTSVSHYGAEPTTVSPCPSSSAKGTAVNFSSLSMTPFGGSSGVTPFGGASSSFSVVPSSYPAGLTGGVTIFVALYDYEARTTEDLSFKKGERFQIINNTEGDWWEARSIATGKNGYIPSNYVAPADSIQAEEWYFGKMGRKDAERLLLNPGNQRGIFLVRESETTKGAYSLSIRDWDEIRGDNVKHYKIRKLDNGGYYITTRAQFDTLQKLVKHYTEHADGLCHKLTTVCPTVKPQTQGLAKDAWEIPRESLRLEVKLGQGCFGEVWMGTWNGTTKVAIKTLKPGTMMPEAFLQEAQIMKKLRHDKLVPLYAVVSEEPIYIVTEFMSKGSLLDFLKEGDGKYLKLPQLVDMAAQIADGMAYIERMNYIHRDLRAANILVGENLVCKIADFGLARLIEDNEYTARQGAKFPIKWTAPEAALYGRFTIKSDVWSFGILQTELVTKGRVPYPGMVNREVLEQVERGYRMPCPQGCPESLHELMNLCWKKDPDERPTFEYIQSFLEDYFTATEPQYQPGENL
UniProt P00519, whole entry: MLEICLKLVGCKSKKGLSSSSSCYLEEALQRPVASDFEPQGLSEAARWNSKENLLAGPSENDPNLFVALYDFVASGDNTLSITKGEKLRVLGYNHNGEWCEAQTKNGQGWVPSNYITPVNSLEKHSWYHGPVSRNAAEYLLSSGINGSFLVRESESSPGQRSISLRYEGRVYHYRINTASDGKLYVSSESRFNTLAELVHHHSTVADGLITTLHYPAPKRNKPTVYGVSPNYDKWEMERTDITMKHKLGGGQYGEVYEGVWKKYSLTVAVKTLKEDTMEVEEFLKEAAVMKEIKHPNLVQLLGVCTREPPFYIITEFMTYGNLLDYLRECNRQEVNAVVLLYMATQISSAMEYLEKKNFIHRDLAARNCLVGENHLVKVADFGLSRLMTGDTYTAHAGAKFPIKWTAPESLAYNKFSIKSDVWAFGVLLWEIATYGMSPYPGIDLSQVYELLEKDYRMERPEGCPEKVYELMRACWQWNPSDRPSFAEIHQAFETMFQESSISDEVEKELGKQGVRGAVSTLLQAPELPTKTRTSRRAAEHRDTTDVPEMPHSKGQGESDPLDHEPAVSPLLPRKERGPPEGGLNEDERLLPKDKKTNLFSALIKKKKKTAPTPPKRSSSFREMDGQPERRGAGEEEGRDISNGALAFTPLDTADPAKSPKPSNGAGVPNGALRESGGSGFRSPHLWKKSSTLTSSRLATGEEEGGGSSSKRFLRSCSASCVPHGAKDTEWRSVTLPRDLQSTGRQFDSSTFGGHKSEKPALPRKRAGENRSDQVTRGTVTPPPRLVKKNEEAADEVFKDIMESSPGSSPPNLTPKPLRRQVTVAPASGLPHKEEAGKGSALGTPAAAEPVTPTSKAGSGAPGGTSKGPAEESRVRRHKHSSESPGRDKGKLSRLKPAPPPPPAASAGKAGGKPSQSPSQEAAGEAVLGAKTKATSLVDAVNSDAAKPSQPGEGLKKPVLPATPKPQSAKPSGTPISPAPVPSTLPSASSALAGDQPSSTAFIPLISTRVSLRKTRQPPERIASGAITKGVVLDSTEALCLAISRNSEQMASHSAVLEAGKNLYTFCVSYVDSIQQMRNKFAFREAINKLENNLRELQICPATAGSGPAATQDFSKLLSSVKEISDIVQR

Key:
Conditions in all cases: K562; 2-18 h
RET = RET (UniProt P07949); assay: kinase-Nluc reporter destabilization hit call (1 = scored as downregulated) (binary); higher = compound decreases kinase abundance
[1] = biological target: RET_M918T (clone: RET_mut) (UniProt P07949); assay: as above
RIOK1 = RIOK1 (UniProt Q9BRS2); assay: as above
RIPK1 = RIPK1 (UniProt Q13546); assay: as above
RIPK2 = RIPK2 (UniProt O43353); assay: as above
ROR2 = ROR2 (UniProt Q01974); assay: as above
RPS6KA1 = RPS6KA1 (UniProt Q15418); assay: as above
SPHK1 = SPHK1 (UniProt Q9NYA1); assay: as above
SRC = SRC (UniProt P12931); assay: as above
STK24 = STK24 (UniProt Q9Y6E0); assay: as above
STK38 = STK38 (UniProt Q15208); assay: as above
SYK = SYK (UniProt P43405); assay: as above
TEC = TEC (UniProt P42680); assay: as above
TYK2 = TYK2 (UniProt P29597); assay: as above
ULK3 = ULK3 (UniProt Q6PHR2); assay: as above
YES1 = YES1 (UniProt P07947); assay: as above
ZAK = ZAK (UniProt Q9NYL2); assay: as above
ZAP70 = ZAP70 (UniProt P43403); assay: as above
ABL1 = ABL1 (UniProt P00519); assay: number of time points (of 5) at which kinase-Nluc abundance scored as decreased, DMSO-normalised (count); higher = more persistent destabilization
AKT1 = AKT1 (UniProt P31749); assay: as above

SMILES	kinase-Nluc reporter destabilization hit call (RET)	kinase-Nluc reporter destabilization hit call [1]	kinase-Nluc reporter destabilization hit call (RIOK1)	kinase-Nluc reporter destabilization hit call (RIPK1)	kinase-Nluc reporter destabilization hit call (RIPK2)	kinase-Nluc reporter destabilization hit call (ROR2)	kinase-Nluc reporter destabilization hit call (RPS6KA1)	kinase-Nluc reporter destabilization hit call (SPHK1)	kinase-Nluc reporter destabilization hit call (SRC)	kinase-Nluc reporter destabilization hit call (STK24)	kinase-Nluc reporter destabilization hit call (STK38)	kinase-Nluc reporter destabilization hit call (SYK)	kinase-Nluc reporter destabilization hit call (TEC)	kinase-Nluc reporter destabilization hit call (TYK2)	kinase-Nluc reporter destabilization hit call (ULK3)	kinase-Nluc reporter destabilization hit call (YES1)	kinase-Nluc reporter destabilization hit call (ZAK)	kinase-Nluc reporter destabilization hit call (ZAP70)	number of time points (ABL1)	number of time points (AKT1)
COc1ccc(F)cc1C(=O)NCc1ccc(-c2nn([C@@H](C)C(F)(F)F)c(N)c2C(N)=O)cc1 [Pirtobrutinib] (10 µM)	inactive: 0	inactive: 0	inactive: 0	inactive: 0	inactive: 0	inactive: 0	inactive: 0	inactive: 0	inactive: 0	inactive: 0	inactive: 0	inactive: 0	inactive: 0	inactive: 0	inactive: 0	inactive: 0	inactive: 0	inactive: 0	0	0
OCCC#Cc1nc(-c2ccc(F)cc2)c(-c2ccncc2)n1CCCc1ccccc1 (2.5 µM)	inactive: 0	inactive: 0	inactive: 0	inactive: 0	inactive: 0	inactive: 0	inactive: 0	inactive: 0	inactive: 0	inactive: 0	inactive: 0	inactive: 0	inactive: 0	inactive: 0	inactive: 0	inactive: 0	inactive: 0	inactive: 0	0	0
C=CC(=O)N1CCN(c2nc(OC[C@@H]3CCCN3C)nc3c2CCN(c2cccc4cccc(C)c24)C3)C[C@@H]1CC#N (2.5 µM)	inactive: 0	inactive: 0	inactive: 0	inactive: 0	inactive: 0	inactive: 0	inactive: 0	inactive: 0	inactive: 0	inactive: 0	inactive: 0	inactive: 0	inactive: 0	inactive: 0	inactive: 0	inactive: 0	inactive: 0	inactive: 0	0	0
C[C@H](CC[C@@H](O)C(C)(C)O)[C@H]1CC[C@@]2(C)[C@@H]3CC=C4[C@@H](CC[C@H](O)C4(C)C)[C@]3(C)[C@H](O)C[C@]12C [Mogrol] (10 µM)	inactive: 0	inactive: 0	inactive: 0	inactive: 0	inactive: 0	inactive: 0	inactive: 0	inactive: 0	inactive: 0	inactive: 0	inactive: 0	inactive: 0	inactive: 0	inactive: 0	inactive: 0	inactive: 0	inactive: 0	inactive: 0	0	0
O=C(O)[C@]1(Cc2cccc(Nc3nccs3)n2)CC[C@@H](Oc2cccc(Cl)c2F)CC1 (2.5 µM)	inactive: 0	inactive: 0	inactive: 0	inactive: 0	inactive: 0	inactive: 0	inactive: 0	inactive: 0	inactive: 0	inactive: 0	inactive: 0	inactive: 0	inactive: 0	inactive: 0	inactive: 0	inactive: 0	inactive: 0	inactive: 0	1	0
CNC(=O)Nc1cc(Oc2cncc(C)c2)c(-c2ccc(OCC(C)(C)O)nc2)cn1 (2.5 µM)	inactive: 0	inactive: 0	inactive: 0	inactive: 0	inactive: 0	inactive: 0	inactive: 0	inactive: 0	inactive: 0	inactive: 0	inactive: 0	inactive: 0	inactive: 0	inactive: 0	inactive: 0	inactive: 0	inactive: 0	inactive: 0	5	0
NC(=O)c1ccc2nc(-c3ccc(C4(N)CCC4)cc3)c(-c3ccccc3)n2n1 (10 µM)	inactive: 0	inactive: 0	inactive: 0	inactive: 0	inactive: 0	inactive: 0	inactive: 0	inactive: 0	inactive: 0	inactive: 0	inactive: 0	inactive: 0	inactive: 0	inactive: 0	inactive: 0	inactive: 0	inactive: 0	inactive: 0	0	0
Nc1nc2c(ncn2COCCO)c(=O)[nH]1 [Acyclovir] (10 µM)	inactive: 0	inactive: 0	inactive: 0	inactive: 0	inactive: 0	inactive: 0	inactive: 0	inactive: 0	inactive: 0	inactive: 0	inactive: 0	inactive: 0	inactive: 0	inactive: 0	inactive: 0	inactive: 0	inactive: 0	inactive: 0	0	0
CNC[C@@H](NC(=O)c1ccc(-c2nc([C@H]3CC[C@H](O)[C@@H](F)C3)cnc2N)cc1F)c1cc(F)cc(Br)c1 [Rineterkib] (10 µM)	inactive: 0	inactive: 0	inactive: 0	inactive: 0	inactive: 0	inactive: 0	inactive: 0	inactive: 0	inactive: 0	inactive: 0	inactive: 0	inactive: 0	inactive: 0	inactive: 0	inactive: 0	inactive: 0	inactive: 0	inactive: 0	0	0
C=C[C@H]1[C@H](O[C@@H]2O[C@H](CO)[C@@H](O)[C@H](O)[C@H]2O)OC=C(C(=O)OC)[C@H]1CCOC(=O)c1cc(O)c(O)c(O)c1 [Cornuside] (10 µM)	inactive: 0	inactive: 0	inactive: 0	inactive: 0	inactive: 0	inactive: 0	inactive: 0	inactive: 0	inactive: 0	inactive: 0	inactive: 0	inactive: 0	inactive: 0	inactive: 0	inactive: 0	inactive: 0	inactive: 0	inactive: 0	0	0
O=C(CC(c1ccccc1)C(C(=O)O)C(=O)O)c1ccc(C(F)(F)F)cc1 (stereo not given) (10 µM)	inactive: 0	inactive: 0	inactive: 0	inactive: 0	inactive: 0	inactive: 0	inactive: 0	inactive: 0	inactive: 0	inactive: 0	inactive: 0	inactive: 0	inactive: 0	inactive: 0	inactive: 0	inactive: 0	inactive: 0	inactive: 0	0	0
